Measurements: PubChem BioAssay AID1347076 (National Center for Advancing Translational Sciences (NCATS), 2019)
About 13,000 (3.2%) of roughly 400,000 compounds were called active. Inconclusive means that the source gave no clear call. Such entries were picked first, then a sample of the others. Calls come from the whole dose curve; as a rule, active = well fitted cell-killing curve with a large enough effect; inconclusive = small, poorly fitted or top-dose-only effect, or effect the other way; inactive = flat fitted curve, though single readings scatter. Where the call is inconclusive, the potency comes from a doubtful curve fit.

Test: qHTS assay for MDR1-selective chemotherapeutics: Primary screen using the drug-selected MDR subline cells KB-V1; note: nearly all actives have a fitted effect of over 60% in size
Settings: KB-V1 MDR cells viability, CellTiter-Glo, 72 h; activity change, negative = cytotoxicity: at 46.1 µM (top of the series)
Outline: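 Cells of the MDR subline KB-V1 are plated, dosed with compound at multiple concentrations, and incubated 72 h at 37 degrees C; CellTiter-Glo is then added and luminescence read after 10 min.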
% is set by controls: 0 for no effect and ±100 for the full control effect; potency is the fitted concentration of half-maximal effect.

| SMILES | Potency | activity change, negative = cytotoxicity |
| --- | --- | --- |
| CC(C)CC(NC(=O)C1CCC(C)CC1)C(=O)Nc1cccnc1 (centres undefined) | inactive |  |
| O=S(=O)(c1ccc(N2CCN(Cc3ccccc3)CC2)nc1)N1CCCC1 | inconclusive: 23.1 µM [cytotoxic, single point] |  |
| Cn1c(=O)c2sccc2n2c(CCC(=O)NCc3ccccc3)nnc12 | inactive |  |
| COC(=O)[C@]12CCCCC=C1N(CCC1=CCCCC1)C(=O)[C@H](CC(=O)NCc1cccc(C(F)(F)F)c1)C2 | inconclusive: 29.1 µM [cytotoxic, single point] |  |
| COC(=O)c1cc(CSc2nnc(-c3ccccc3)c(-c3ccccc3)n2)oc1C | inconclusive: 29.1 µM [cytotoxic, single point] |  |
| COc1ccc(NC(=O)Nc2nc(C(N)Cc3ccc(C(F)(F)F)cc3)cs2)cc1 (centres undefined) | inconclusive: 25.9 µM [cytotoxic, single point] |  |
| Cc1cccc(-c2nnc(SCC#N)n2-c2cccc(Cl)c2)c1 | inconclusive: 13 µM [cytotoxic, partial curve] |  |
| COc1ccc(Cl)cc1S(=O)(=O)Nc1cccc(-c2ccc(N3CCOCC3)nn2)c1 | inactive |  |
| CCN(CC)CCNC(=O)c1ccc2c(c1)N(Cc1ccccc1)C(=O)c1ccccc1S2=O (centres undefined) | inactive |  |
| CCn1nc(C)c(C(=O)Nc2cc(Oc3cc(C)cc(C)c3)cc([N+](=O)[O-])c2)c1C | active: 3.26 µM |  |
| COc1ccc(N2CCN(C(=O)CCCN3C(=O)c4cccc5cccc(c45)C3=O)CC2)cc1 | inconclusive: 8.2 µM [cytotoxic, partial curve, poor fit] |  |
| COc1ccc2cc(-c3[nH]ncc3CN3CCCCO3)ccc2c1 | inconclusive: 32.6 µM [rising, partial curve, poor fit] |  |
| C[C@@H]1CCCCCCCCC(=O)OCCN(C(=O)OC(C)(C)C)[C@H](C)CCCCCCCCC(=O)OCCN(C(=O)OC(C)(C)C)[C@H](C)CCCCCCCCC(=O)OCCN1C(=O)OC(C)(C)C | inactive |  |
| Cc1cccc(C)c1NC(=O)CN(C)S(=O)(=O)c1ccc2c(c1)n(C)c(=O)c(=O)n2C | inconclusive: 20.6 µM [rising, partial curve, poor fit] |  |
| CC1CCCC2(C1)NC(=S)N(c1ccccc1)N2 (centres undefined) | inactive |  |
| C/C(=N\NC(=O)c1ccc(CSc2nncn2C)cc1)c1ccc2ccccc2c1 | inactive |  |
| CCOC(=O)CN1C(=O)N[C@@H](c2ccccc2)C(C(C)=O)=C1C | inconclusive: 8.2 µM [rising, single point] |  |
| COc1ccc(C2CC(=O)N(CC(=O)Nc3ccc(C(F)(F)F)cc3)c3ccccc3S2)cc1 (centres undefined) | inconclusive: 8.2 µM [cytotoxic, partial curve, poor fit] |  |
| CNc1cc(CSC)nc(SCc2ccc(Cl)c(Cl)c2)n1 | inconclusive: 23.1 µM [cytotoxic, partial curve, poor fit] |  |
| C/C(Cn1nnc([N+](=O)[O-])n1)=N\NC(=O)c1ccccc1O | inactive |  |
| O=C(Cn1c(=O)nc(-c2ccccc2)c2cc(Cl)ccc21)NCCCc1ccccc1 | inactive |  |
| O=C(Nc1ccc(Cl)cn1)c1cccc2c(Br)cccc12 | inactive |  |
| N#Cc1c(NC(=O)C2CC2)sc2c1CCCCC2 | inconclusive: 18.4 µM [cytotoxic, single point] |  |

| SMILES | Potency | activity change, negative = cytotoxicity |
| --- | --- | --- |
| O=C(COC(=O)CCCN1C(=O)c2cccc3cccc(c23)C1=O)Nc1cccc(Br)c1 |  | inconclusive: -94.3% |
| COc1ccc(S(=O)(=O)NC(CC(=O)NCc2ccccc2OC)c2ccco2)cc1 (centres undefined) | inconclusive: 14.6 µM [cytotoxic, partial curve, poor fit] |  |
| Cc1ccc(C(C(=O)NC2CCCCC2)N(CCCN2CCOCC2)C(=O)c2snc(C(N)=O)c2N)cc1 (centres undefined) | inconclusive: 9.2 µM [cytotoxic, partial curve] |  |
| COC(=O)c1sc(-c2cccs2)cc1NC(=O)/C=C/C(=O)O | inactive |  |
| Cn1cc(C(=O)NCc2ccccc2)c(=O)c2cc(S(=O)(=O)N3CCCCCC3)ccc21 | inconclusive: 3.66 µM [cytotoxic, partial curve, poor fit] |  |
| c1ccc2c(c1)nnn2-c1ncnc2sccc12 | inconclusive: 23.1 µM [cytotoxic, single point] |  |
| O=C(CSc1nnc(SCC(=O)c2ccco2)s1)c1ccco1 | inconclusive: 25.9 µM [cytotoxic, partial curve, poor fit] |  |
| COc1cccc(CNC(=O)c2c3c(nc4ccccc24)C(=O)N(C2CCCCC2)C3)c1 | inactive |  |
| Cc1ccc(C(=O)c2ccccc2C(=O)OCC(=O)N2CC(C)CC(C)C2)cc1 (centres undefined) | inconclusive: 14.6 µM [cytotoxic, partial curve] |  |
| Cn1c(=O)c2c(nc(SCc3ccccc3F)n2C)n(C)c1=O | inconclusive: 18.4 µM [cytotoxic, partial curve, poor fit] |  |
| Nc1nc(N)nc(-c2cccc(Br)c2)n1 | inactive |  |
| Cc1ccccc1CNC(=O)/C=C\C(=O)O | inactive |  |
| COCc1ccc(C(=O)N2CCN(CC(=O)N3CCCC3)CC2)cc1 | inconclusive: 29.1 µM [rising, single point] |  |
| Cc1ccc(CSC2=NCCN2C(=O)c2ccc(S(=O)(=O)N(C)C)cc2)cc1 | inconclusive: 0.0058 µM [rising, full curve, poor fit] |  |
| O=C(Nc1cccc(-c2ccc(N3CCOCC3)nn2)c1)c1cccc(Cl)c1 | inconclusive: 3.26 µM [cytotoxic, full curve] |  |
| Cc1cc(C)n(CC(=O)N2CCCC(N3CCN(c4ccccc4C)CC3)C2)n1 (centres undefined) | inactive |  |
| O=C(NC(=S)Nc1ccc(N2CCCCC2)c(Cl)c1)c1ccc2c(c1)OCCO2 | inconclusive: 11.6 µM [cytotoxic, partial curve, poor fit] |  |
| Cc1c(Cl)c([N+](=O)[O-])nn1CC(=O)N1CCc2ccccc2C1 | inconclusive: 8.2 µM [cytotoxic, partial curve] |  |
| Cc1ccc(NC(=O)C(C)N2CCCC2)cc1Cl (centres undefined) | inconclusive: 23.1 µM [rising, single point] |  |
| Fc1ccc(/C=N/NC(=S)Nc2ccc(Cl)cc2Cl)cc1 | inconclusive: 6.51 µM [cytotoxic, partial curve] |  |
| CN(C)/C=C1\N=C(c2ccccc2)OC1=O | inactive |  |
| COc1ccc(CNC(=O)c2sc(=O)n(Cc3ccc(C)cc3)c2C)cc1OC | active: 18.4 µM |  |
| Cc1ccc(S(=O)(=O)NC(=NC(C)C(=O)O)c2ccccc2)cc1 (centres undefined) | inactive |  |

2 entries from above in another layout:
SMILES | Potency | activity change, negative = cytotoxicity
CCN(CC)CCNC(=O)c1ccc2c(c1)N(Cc1ccccc1)C(=O)c1ccccc1S2=O (centres undefined) | inactive | 
c1ccc2c(c1)nnn2-c1ncnc2sccc12 | inconclusive: 23.1 µM [cytotoxic, single point] | 

Following part:

| SMILES | Potency | activity change, negative = cytotoxicity |
| --- | --- | --- |
| COc1ccccc1/C=C/CN1CCC(Oc2cc(C(=O)NC3CC3)ccc2OC)CC1 | inactive |  |
| CCOc1ccc(N2C(=O)CC(N3CC(C)OC(C)C3)C2=O)cc1 (centres undefined) | inactive |  |
| COc1cccc(CNC(=O)c2cccn2-c2nnc(N3CCCC3)s2)c1 | inactive |  |
| COc1cc2cc(C(c3nnnn3C(C)(C)C)N3CCc4ccccc43)c(=O)[nH]c2cc1OC (centres undefined) | inconclusive: 29.1 µM [cytotoxic, single point] |  |
| COc1cc(/C=C/C(=O)OCC(=O)N2CC(C)OC(C)C2)ccc1OCC#N (centres undefined) | inactive |  |
| Cc1cccc(Nc2nc(-c3c(C)nc4ccccn34)cs2)c1 | active: 7.31 µM |  |
| COc1ccc(CN2C(=O)C(CC(=O)NCc3ccco3)CC(C(=O)N3CCOCC3)=C2C)cc1 (centres undefined) |  | inconclusive: 21.6% |
| Cc1c(Br)c([N+](=O)[O-])nn1CC(=O)Nc1ccc(C(C)C)cc1 | inconclusive: 20.6 µM [cytotoxic, single point] |  |
| CN1CCN(c2ccccc2NC(=O)c2ccc(-c3ccc(Cl)cc3Cl)o2)CC1 | inconclusive: 23.1 µM [cytotoxic, single point] |  |
| Cc1ccc2nc(-c3ccc(Cl)cc3)c(Cc3ccccn3)n2c1 | inconclusive: 8.2 µM [cytotoxic, partial curve] |  |
| NC(=O)[C@H]1CC2(CC(c3cccc(NC(=O)COc4ccc(Cl)cc4)c3)=NO2)CN1C(=O)Cc1ccc([N+](=O)[O-])cc1 (some centres undefined) | inconclusive: 29.1 µM [cytotoxic, single point] |  |
| Cc1ccnc(NC(=O)CCC(=O)N(CC(=O)NC(C)(C)C)c2ccc(F)c(Cl)c2)c1 | inactive |  |
| O=C(Nc1cccc(-c2cn3ccccc3n2)c1)c1cccs1 | inconclusive: 8.2 µM [cytotoxic, partial curve] |  |
| CC(C)Oc1ccc(CCC(=O)NNC(=O)CCC(=O)O)cc1 | inconclusive: 18.4 µM [rising, single point] |  |
| COc1ccc(-c2nc(-c3ccccc3)nc(N3CCN(C)CC3)c2C#N)cc1 | inconclusive: 29.1 µM [cytotoxic, single point] |  |
| CCc1nc2c(OCCn3cccc3)cccn2c1N(C)C(=O)CC(C)C | inactive |  |
| Cc1ccc(NC(=S)NCCC2=CCCCC2)cc1 | inconclusive: 16.4 µM [cytotoxic, single point] |  |
| COc1cc2cc(c1Cl)N(C)C(=O)CC(OC(=O)C(C)N(C)C(C)=O)C1(C)OC1C(C)C1CC(O)(NC(=O)O1)C(OC)C=CC=C(C)C2 (centres undefined) | active: 0.461 µM |  |
| CCOC(=O)C1(CCCc2ccccc2)CCN(Cc2cn(CC)nc2C)CC1 | inactive |  |
| COc1cccc(CNc2nc(NCc3ccccc3)nc3ccsc23)c1 | active: 9.2 µM |  |
| O=C(NCCc1c[nH]c2ccccc12)C(=O)NCC1OCCN1S(=O)(=O)c1ccc(Cl)cc1 (centres undefined) | inconclusive: 29.1 µM [cytotoxic, single point] |  |
| COc1ccccc1C/C(N)=N/OC(=O)COc1cc(C)cc(C)c1C | inconclusive: 29.1 µM [cytotoxic, single point] |  |
| Cc1ccc(CNC(=O)CN2CCCC(C)C2)cc1 (centres undefined) | inconclusive: 14.6 µM [cytotoxic, single point] |  |

Entries above that have a thiophene ring, fused or not (six):

| SMILES | Potency | activity change, negative = cytotoxicity |
| --- | --- | --- |
| Cn1c(=O)c2sccc2n2c(CCC(=O)NCc3ccccc3)nnc12 | inactive |  |
| N#Cc1c(NC(=O)C2CC2)sc2c1CCCCC2 | inconclusive: 18.4 µM [cytotoxic, single point] |  |
| COC(=O)c1sc(-c2cccs2)cc1NC(=O)/C=C/C(=O)O | inactive |  |
| c1ccc2c(c1)nnn2-c1ncnc2sccc12 | inconclusive: 23.1 µM [cytotoxic, single point] |  |
| O=C(Nc1cccc(-c2cn3ccccc3n2)c1)c1cccs1 | inconclusive: 8.2 µM [cytotoxic, partial curve] |  |
| COc1cccc(CNc2nc(NCc3ccccc3)nc3ccsc23)c1 | active: 9.2 µM |  |
